Measurements: paper doi:10.1101/2024.12.19.629515
Results are given in words; binding and its absence hold for the method and conditions named. For part of these data: A result given as binding can be weak or reduced; the word gives no strength. Sequences can lack the tags named with a protein. For part of these data: In cells and extracts the contact can be indirect.

The chains behind the UniProt entries cited, without tags or fusion partners. Where a name states a change or a piece, a line headed by the entry shows the natural chain unless it says otherwise.
UniProt O22476: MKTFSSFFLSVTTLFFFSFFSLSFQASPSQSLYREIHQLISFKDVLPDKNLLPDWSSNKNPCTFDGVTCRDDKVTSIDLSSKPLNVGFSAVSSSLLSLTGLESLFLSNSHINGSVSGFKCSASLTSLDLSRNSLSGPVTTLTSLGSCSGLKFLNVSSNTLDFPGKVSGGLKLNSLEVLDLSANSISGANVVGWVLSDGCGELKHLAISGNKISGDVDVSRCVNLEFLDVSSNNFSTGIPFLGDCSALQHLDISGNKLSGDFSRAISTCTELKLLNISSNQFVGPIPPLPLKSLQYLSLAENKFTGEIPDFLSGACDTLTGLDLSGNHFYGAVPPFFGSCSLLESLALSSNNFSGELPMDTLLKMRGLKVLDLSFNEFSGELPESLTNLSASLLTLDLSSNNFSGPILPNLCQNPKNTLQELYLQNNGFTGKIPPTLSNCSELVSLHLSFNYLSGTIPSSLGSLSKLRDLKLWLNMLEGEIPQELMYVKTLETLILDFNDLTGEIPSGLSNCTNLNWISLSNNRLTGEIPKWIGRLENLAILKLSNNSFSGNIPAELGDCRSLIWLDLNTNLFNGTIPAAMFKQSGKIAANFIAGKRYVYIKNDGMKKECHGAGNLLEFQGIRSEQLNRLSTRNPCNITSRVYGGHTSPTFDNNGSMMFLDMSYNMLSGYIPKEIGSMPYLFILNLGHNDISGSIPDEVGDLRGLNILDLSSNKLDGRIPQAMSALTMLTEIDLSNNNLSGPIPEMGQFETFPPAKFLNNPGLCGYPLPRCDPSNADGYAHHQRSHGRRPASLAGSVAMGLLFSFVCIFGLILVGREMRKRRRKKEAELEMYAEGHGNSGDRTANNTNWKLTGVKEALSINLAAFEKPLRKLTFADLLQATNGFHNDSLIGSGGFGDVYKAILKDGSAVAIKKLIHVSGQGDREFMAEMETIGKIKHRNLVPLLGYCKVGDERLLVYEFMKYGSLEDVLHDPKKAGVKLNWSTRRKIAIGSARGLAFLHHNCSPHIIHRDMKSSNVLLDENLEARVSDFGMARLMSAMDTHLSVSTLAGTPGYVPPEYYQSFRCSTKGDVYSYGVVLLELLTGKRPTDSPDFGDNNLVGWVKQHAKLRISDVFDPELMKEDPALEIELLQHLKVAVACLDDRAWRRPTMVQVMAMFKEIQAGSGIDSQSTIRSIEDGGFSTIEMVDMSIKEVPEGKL
UniProt Q96299: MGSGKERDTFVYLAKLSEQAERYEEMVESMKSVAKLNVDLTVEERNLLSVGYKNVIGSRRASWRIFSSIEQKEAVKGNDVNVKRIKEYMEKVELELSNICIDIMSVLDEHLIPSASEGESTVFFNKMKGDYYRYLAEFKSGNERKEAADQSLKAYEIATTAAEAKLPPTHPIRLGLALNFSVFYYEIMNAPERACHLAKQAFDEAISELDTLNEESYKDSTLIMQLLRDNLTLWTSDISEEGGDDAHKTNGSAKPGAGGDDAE

Each molecule was assayed against BRI1^ΔJM-cYFP (Arabidopsis thaliana) (UniProt O22476) (assay: split reporter). Settings: not given.

| Molecule | binding |
| --- | --- |
| GRF6-nYFP (protein, UniProt P48349 1-248) MAATLGRDQYVYMAKLAEQAERYEEMVQFMEQLVTGATPAEELTVEERNLLSVAYKNVIGSLRAAWRIVSSIEQKEESRKNDEHVSLVKDYRSKVESELSSVCSGILKLLDSHLIPSAGASESKVFYLKMKGDYHRYMAEFKSGDERKTAAEDTMLAYKAAQDIAAADMAPTHPIRLGLALNFSVFYYEILNSSDKACNMAKQAFEEAIAELDTLGEESYKDSTLIMQLLRDNLTLWTSDMQEQMDEA | no binding |

What follows are molecules tested against GST-tagged BRI1-cytoplasmic domain (GST-BRI1-CD) (Arabidopsis thaliana) (UniProt O22476) (assay: pull-down). Settings: not given.

| Molecule | binding |
| --- | --- |
| HIS-GRF9 (from UniProt Q96299 1-263) | binds |
| HIS-GRF2 (protein, UniProt Q01525 1-259) MASGREEFVYMAKLAEQAERYEEMVEFMEKVSAAVDGDELTVEERNLLSVAYKNVIGARRASWRIISSIEQKEESRGNDDHVTAIREYRSKIETELSGICDGILKLLDSRLIPAAASGDSKVFYLKMKGDYHRYLAEFKTGQERKDAAEHTLAAYKSAQDIANAELAPTHPIRLGLALNFSVFYYEILNSPDRACNLAKQAFDEAIAELDTLGEESYKDSTLIMQLLRDNLTLWTSDMQDDAADEIKEAAAPKPTEEQQ | binds |
| HIS-GRF1 (protein, UniProt P42643 1-267) MATPGASSARDEFVYMAKLAEQAERYEEMVEFMEKVAKAVDKDELTVEERNLLSVAYKNVIGARRASWRIISSIEQKEESRGNDDHVSLIRDYRSKIETELSDICDGILKLLDTILVPAAASGDSKVFYLKMKGDYHRYLAEFKSGQERKDAAEHTLTAYKAAQDIANSELAPTHPIRLGLALNFSVFYYEILNSPDRACNLAKQAFDEAIAELDTLGEESYKDSTLIMQLLRDNLTLWTSDMQDDVADDIKEAAPAAAKPADEQQS | binds weakly |
| HIS-GRF5 (protein, UniProt P42645 1-268) MSSDSSREENVYLAKLAEQAERYEEMVEFMEKVAKTVETEELTVEERNLLSVAYKNVIGARRASWRIISSIEQKEDSRGNSDHVSIIKDYRGKIETELSKICDGILNLLEAHLIPAASLAESKVFYLKMKGDYHRYLAEFKTGAERKEAAESTLVAYKSAQDIALADLAPTHPIRLGLALNFSVFYYEILNSSDRACSLAKQAFDEAISELDTLGEESYKDSTLIMQLLRDNLTLWTSDLNDEAGDDIKEAPKEVQKVDEQAQPPPSQ | binds |
| HIS-fused BAK1 cytoplasmic domain (HIS-BAK1-CD) (domain or fragment, UniProt Q94F62 247-615) AWWRRKKPQDHFFDVPAEEDPEVHLGQLKRFSLRELQVASDNFSNKNILGRGGFGKVYKGRLADGTLVAVKRLKEERTQGGELQFQTEVEMISMAVHRNLLRLRGFCMTPTERLLVYPYMANGSVASCLRERPESQPPLDWPKRQRIALGSARGLAYLHDHCDPKIIHRDVKAANILLDEEFEAVVGDFGLAKLMDYKDTHVTTAVRGTIGHIAPEYLSTGKSSEKTDVFGYGVMLLELITGQRAFDLARLANDDDVMLLDWVKGLLKEKKLEALVDVDLQGNYKDEEVEQLIQVALLCTQSSPMERPKMSEVVRMLEGDGLAERWEEWQKEEMFRQDFNYPTHHPAVSGWIIGDSTSQIENEYPSGPR | binds |
| HIS-GRF6 (protein, UniProt P48349 1-248) MAATLGRDQYVYMAKLAEQAERYEEMVQFMEQLVTGATPAEELTVEERNLLSVAYKNVIGSLRAAWRIVSSIEQKEESRKNDEHVSLVKDYRSKVESELSSVCSGILKLLDSHLIPSAGASESKVFYLKMKGDYHRYMAEFKSGDERKTAAEDTMLAYKAAQDIAAADMAPTHPIRLGLALNFSVFYYEILNSSDKACNMAKQAFEEAIAELDTLGEESYKDSTLIMQLLRDNLTLWTSDMQEQMDEA | binds |
| HIS-GRF11 (protein, UniProt Q9S9Z8 1-252) MENERAKQVYLAKLNEQAERYDEMVEAMKKVAALDVELTIEERNLLSVGYKNVIGARRASWRILSSIEQKEESKGNEQNAKRIKDYRTKVEEELSKICYDILAVIDKHLVPFATSGESTVFYYKMKGDYFRYLAEFKSGADREEAADLSLKAYEAATSSASTELSTTHPIRLGLALNFSVFYYEILNSPERACHLAKRAFDEAIAELDSLNEDSYKDSTLIMQLLRDNLTLWTSDLEEGGEQSKGHNQQDEN | binds |
| HIS-GRF3 (protein, UniProt P42644 1-255) MSTREENVYMAKLAEQAERYEEMVEFMEKVAKTVDVEELSVEERNLLSVAYKNVIGARRASWRIISSIEQKEESKGNEDHVAIIKDYRGKIESELSKICDGILNVLEAHLIPSASPAESKVFYLKMKGDYHRYLAEFKAGAERKEAAESTLVAYKSASDIATAELAPTHPIRLGLALNFSVFYYEILNSPDRACSLAKQAFDDAIAELDTLGEESYKDSTLIMQLLRDNLTLWTSDMTDEAGDEIKEASKPDGAE | binds |
| HIS-GRF4 (protein, UniProt P46077 1-267) MAAPPASSSAREEFVYLAKLAEQAERYEEMVEFMEKVAEAVDKDELTVEERNLLSVAYKNVIGARRASWRIISSIEQKEESRGNDDHVTTIRDYRSKIESELSKICDGILKLLDTRLVPASANGDSKVFYLKMKGDYHRYLAEFKTGQERKDAAEHTLTAYKAAQDIANAELAPTHPIRLGLALNFSVFYYEILNSPDRACNLAKQAFDEAIAELDTLGEESYKDSTLIMQLLRDNLTLWTSDMQDESPEEIKEAAAPKPAEEQKEI | binds |
| HIS-GRF10 (protein, UniProt P48347 1-254) MENEREKQVYLAKLSEQTERYDEMVEAMKKVAQLDVELTVEERNLVSVGYKNVIGARRASWRILSSIEQKEESKGNDENVKRLKNYRKRVEDELAKVCNDILSVIDKHLIPSSNAVESTVFFYKMKGDYYRYLAEFSSGAERKEAADQSLEAYKAAVAAAENGLAPTHPVRLGLALNFSVFYYEILNSPESACQLAKQAFDDAIAELDSLNEESYKDSTLIMQLLRDNLTLWTSDLNEEGDERTKGADEPQDEN | binds |

The molecules below were run against GST-tagged BRI1-cytoplasmic domain (GST-BRI1-CD) (Arabidopsis thaliana), O22476 (assay: pull-down). Settings: remark: other sources report otherwise.

| Molecule | binding |
| --- | --- |
| HIS-GRF8, P48348 1-248 (protein) MATTLSRDQYVYMAKLAEQAERYEEMVQFMEQLVSGATPAGELTVEERNLLSVAYKNVIGSLRAAWRIVSSIEQKEESRKNEEHVSLVKDYRSKVETELSSICSGILRLLDSHLIPSATASESKVFYLKMKGDYHRYLAEFKSGDERKTAAEDTMIAYKAAQDVAVADLAPTHPIRLGLALNFSVFYYEILNSSEKACSMAKQAFEEAIAELDTLGEESYKDSTLIMQLLRDNLTLWTSDMQEQMDEA | binds |
